Measured values from patent publication US20200031947A1.
Results are given in words; binding and its absence hold for the method and conditions named. Some entries that bind do so weakly or less than the wild type.

Tests used:
[1] = target: T1, human GITR on cells (human) (UniProt Q9Y5U5); test: flow cytometry on activated Tregs (FIG. 3B legend)
T1 sequence: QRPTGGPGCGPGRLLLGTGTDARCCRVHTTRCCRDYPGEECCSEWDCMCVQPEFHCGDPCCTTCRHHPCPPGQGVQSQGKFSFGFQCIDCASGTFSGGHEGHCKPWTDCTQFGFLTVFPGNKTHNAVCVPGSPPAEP

[2] = target: T1, human GITR on cells (human); test: flow cytometry on expanded human Tregs, secondary anti-human Fc detection
[3] = target: T1, human GITR on cells (human); test: flow cytometry on in vitro expanded human Tregs; unconjugated antibody detected with A647 goat anti-human Fc gamma F(ab')2; MFI on antibody positive cells

binding [1]: binds | binding [2]: binds | binding [3]: binds
B1: h3G7 N9 (antibody, IgG1, V domains shown)
VH: QVQLVQSGAEVKKPGASVKVSCKASGYTFTGYTVSWVRQAPGQGLEWMGLINPYTGGIRYNQKFKGRVTMTRDTSTSTVYMELSSLRSEDTAVYYCARIGGYYDSMDYWGQGTLVTVSS
VL: DIQMTQSPSSLSASVGDRVTITCRASESVQPRGINFLNWYQQKPGKAPKLLIYAASNPSKGVPSRFSGSGSGTDFTLTISSLQPEDFATYYCQQALELPWTFGGGTKVEIK
